{"sequences": {"note": "By UniProt entry, the sequences of proteins in these tests, tags left out. Residues count along the entry.", "UniProt P02769, residues 25-607": "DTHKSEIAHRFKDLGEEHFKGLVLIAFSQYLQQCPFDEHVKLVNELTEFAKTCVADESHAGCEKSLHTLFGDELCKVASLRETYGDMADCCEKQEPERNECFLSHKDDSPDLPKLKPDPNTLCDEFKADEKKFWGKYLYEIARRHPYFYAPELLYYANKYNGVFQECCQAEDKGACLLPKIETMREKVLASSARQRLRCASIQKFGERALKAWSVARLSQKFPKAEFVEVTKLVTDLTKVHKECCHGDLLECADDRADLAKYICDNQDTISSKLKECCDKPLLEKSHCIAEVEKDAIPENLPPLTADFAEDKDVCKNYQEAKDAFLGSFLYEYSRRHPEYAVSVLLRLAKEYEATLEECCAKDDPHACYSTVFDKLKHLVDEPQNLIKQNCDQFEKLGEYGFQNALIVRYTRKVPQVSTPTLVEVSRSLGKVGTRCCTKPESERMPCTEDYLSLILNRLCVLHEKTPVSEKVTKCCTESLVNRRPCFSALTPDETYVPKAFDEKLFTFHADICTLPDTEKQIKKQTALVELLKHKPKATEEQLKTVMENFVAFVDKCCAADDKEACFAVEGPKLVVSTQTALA", "UniProt P61244": "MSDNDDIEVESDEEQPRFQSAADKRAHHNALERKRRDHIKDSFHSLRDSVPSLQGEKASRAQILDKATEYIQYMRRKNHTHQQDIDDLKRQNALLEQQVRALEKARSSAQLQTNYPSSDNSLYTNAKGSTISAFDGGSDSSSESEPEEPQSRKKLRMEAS", "UniProt Q92547": "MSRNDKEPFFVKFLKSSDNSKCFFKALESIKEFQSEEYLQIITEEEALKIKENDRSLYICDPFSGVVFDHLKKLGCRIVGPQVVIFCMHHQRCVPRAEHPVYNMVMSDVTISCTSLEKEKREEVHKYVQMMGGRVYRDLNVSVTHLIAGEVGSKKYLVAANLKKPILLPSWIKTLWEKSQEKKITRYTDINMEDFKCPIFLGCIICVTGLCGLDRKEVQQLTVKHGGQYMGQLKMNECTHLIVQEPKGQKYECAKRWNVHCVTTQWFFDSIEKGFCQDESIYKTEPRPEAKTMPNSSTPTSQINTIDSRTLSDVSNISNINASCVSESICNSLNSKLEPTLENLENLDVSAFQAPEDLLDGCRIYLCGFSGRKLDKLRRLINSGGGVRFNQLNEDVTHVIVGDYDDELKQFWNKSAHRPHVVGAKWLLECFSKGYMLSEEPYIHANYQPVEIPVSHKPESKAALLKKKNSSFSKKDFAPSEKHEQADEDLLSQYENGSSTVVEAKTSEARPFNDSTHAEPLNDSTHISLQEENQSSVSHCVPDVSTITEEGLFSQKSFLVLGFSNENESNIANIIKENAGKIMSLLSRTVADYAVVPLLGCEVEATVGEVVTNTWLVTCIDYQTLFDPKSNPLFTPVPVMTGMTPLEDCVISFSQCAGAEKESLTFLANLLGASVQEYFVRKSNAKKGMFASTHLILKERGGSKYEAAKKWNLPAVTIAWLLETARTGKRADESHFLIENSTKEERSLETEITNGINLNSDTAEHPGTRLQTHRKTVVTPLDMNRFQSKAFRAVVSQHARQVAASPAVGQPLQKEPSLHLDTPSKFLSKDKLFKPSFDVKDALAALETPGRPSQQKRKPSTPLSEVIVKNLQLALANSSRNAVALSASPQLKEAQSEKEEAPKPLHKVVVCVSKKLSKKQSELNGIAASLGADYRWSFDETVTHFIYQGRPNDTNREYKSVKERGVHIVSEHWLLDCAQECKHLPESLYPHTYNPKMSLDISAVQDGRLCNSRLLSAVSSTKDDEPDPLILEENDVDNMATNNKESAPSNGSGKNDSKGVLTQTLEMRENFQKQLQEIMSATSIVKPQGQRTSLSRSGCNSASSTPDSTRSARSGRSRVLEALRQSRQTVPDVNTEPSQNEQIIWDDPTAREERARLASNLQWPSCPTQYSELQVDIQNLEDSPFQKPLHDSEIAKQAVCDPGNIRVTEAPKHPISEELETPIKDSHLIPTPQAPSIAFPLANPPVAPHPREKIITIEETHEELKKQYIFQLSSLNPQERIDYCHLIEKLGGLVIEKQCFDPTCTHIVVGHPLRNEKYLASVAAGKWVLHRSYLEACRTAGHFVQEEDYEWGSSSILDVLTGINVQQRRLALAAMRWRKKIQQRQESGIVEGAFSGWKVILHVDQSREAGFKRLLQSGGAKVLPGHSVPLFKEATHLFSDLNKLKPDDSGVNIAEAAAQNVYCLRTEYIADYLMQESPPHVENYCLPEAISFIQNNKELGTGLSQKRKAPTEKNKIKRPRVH", "UniProt P15927": "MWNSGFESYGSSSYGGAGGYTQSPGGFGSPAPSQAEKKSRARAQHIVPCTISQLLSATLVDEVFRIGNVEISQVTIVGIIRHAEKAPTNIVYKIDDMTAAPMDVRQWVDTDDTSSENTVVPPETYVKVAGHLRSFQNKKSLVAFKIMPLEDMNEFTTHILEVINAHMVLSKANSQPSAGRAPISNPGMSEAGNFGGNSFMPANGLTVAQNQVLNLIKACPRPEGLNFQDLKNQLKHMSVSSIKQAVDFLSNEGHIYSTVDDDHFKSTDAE", "UniProt P42768": "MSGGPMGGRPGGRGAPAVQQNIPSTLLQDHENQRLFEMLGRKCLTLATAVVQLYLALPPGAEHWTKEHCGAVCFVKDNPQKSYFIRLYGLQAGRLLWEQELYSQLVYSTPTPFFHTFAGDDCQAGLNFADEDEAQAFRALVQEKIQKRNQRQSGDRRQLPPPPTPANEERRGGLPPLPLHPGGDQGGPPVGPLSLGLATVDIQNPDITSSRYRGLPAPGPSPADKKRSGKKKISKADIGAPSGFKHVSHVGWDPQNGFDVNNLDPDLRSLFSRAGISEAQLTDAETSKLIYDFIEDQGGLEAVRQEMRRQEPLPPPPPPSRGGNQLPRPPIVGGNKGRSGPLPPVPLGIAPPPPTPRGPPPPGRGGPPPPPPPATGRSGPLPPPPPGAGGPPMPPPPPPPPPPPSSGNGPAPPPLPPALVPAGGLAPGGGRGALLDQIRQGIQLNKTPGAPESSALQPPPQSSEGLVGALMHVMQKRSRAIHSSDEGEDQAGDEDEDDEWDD", "UniProt Q13535": "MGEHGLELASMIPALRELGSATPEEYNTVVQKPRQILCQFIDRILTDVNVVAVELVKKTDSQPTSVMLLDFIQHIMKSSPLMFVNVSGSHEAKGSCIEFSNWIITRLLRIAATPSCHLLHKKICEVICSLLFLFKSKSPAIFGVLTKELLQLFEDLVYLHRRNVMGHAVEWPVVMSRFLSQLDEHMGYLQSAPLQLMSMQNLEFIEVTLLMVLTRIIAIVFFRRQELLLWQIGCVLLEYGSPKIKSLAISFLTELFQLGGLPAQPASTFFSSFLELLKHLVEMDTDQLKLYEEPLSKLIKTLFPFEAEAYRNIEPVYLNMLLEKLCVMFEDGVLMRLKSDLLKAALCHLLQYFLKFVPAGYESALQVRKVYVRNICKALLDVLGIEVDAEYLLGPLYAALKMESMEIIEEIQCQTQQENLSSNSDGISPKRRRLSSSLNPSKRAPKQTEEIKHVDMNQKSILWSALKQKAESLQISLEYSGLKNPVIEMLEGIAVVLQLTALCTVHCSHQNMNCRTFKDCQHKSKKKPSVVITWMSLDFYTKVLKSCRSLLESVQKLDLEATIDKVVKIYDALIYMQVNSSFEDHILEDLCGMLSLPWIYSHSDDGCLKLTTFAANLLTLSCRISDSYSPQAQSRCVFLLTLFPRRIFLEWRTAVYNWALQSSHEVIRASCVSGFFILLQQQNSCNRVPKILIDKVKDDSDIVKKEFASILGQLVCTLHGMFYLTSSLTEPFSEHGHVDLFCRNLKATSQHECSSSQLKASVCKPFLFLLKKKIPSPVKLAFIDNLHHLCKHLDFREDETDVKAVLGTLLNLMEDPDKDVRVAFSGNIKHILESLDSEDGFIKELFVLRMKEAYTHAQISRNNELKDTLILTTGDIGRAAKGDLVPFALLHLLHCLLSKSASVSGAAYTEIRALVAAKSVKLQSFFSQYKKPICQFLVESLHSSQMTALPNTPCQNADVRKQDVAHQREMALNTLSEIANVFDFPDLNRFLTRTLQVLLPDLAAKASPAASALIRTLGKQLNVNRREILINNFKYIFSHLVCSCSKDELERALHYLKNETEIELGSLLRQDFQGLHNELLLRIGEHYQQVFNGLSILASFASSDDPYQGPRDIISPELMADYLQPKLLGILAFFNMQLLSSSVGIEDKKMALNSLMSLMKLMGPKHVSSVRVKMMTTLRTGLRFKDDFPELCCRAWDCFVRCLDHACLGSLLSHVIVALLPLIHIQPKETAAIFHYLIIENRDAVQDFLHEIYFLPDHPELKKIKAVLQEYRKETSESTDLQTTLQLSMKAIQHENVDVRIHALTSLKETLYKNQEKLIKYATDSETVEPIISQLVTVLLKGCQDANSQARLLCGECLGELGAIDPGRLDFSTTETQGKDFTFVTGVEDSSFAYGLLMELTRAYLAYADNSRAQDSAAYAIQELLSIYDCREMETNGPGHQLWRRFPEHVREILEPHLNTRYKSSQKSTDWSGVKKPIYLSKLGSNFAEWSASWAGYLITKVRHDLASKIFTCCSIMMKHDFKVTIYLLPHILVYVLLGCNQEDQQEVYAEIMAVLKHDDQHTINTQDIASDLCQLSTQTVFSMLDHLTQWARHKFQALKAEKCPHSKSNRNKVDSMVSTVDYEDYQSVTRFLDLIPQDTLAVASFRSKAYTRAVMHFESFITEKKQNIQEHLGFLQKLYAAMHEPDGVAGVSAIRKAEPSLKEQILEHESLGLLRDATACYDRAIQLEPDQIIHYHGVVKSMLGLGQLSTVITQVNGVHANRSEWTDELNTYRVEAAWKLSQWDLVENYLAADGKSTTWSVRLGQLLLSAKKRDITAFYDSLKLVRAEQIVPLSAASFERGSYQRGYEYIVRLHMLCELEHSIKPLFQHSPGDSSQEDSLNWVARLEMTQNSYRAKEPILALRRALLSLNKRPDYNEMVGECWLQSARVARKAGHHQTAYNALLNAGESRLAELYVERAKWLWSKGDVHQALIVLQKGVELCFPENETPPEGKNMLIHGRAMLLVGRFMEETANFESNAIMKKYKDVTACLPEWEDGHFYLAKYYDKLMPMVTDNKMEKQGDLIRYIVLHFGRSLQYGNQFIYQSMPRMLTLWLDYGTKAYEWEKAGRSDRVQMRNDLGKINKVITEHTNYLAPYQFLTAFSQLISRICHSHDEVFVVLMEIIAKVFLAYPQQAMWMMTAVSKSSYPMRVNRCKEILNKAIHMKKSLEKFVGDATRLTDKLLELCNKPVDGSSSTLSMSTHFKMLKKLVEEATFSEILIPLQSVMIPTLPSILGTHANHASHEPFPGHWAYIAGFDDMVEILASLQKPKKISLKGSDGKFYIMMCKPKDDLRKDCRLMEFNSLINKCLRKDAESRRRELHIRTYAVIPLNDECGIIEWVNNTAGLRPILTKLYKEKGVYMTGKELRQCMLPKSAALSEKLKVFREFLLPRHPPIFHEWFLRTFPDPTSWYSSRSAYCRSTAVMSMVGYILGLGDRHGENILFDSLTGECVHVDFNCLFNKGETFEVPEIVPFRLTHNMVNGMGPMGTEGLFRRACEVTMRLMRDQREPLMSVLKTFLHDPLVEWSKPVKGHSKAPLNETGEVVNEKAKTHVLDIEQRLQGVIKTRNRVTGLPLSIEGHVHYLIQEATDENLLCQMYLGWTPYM"}, "source": "paper PMC9243104", "key": {"[1]": {"target": "γH2A.X (endogenous, human T and B cells) (human (endogenous in T and B cells)) (UniProt P16104)", "assay": "proximity ligation; Duolink PLA on fixed, permeabilised human T cells and B cells, endogenous proteins; cells treated with HU or CPT (2 h or 4 h); WT and WASp-deficient cells compared in some panels"}, "[2]": {"target": "Bovine serum albumin (bovine) (UniProt P02769)", "assay": "ELISA; 1 µg of 1st protein coated on a 96-well plate (1 h, 25 °C), blocked with 5% milk in PBS; 2nd protein added at increasing concentrations in blocking buffer (1 h, 25 °C); detected with anti-WASp antibody, OD450; RPA coated alone or after pre-incubation with 1 nM ssDNA; both purified"}, "[3]": {"target": "Human MAX (Myc-associated factor X) (human) (UniProt P61244)", "assay": "ELISA; 1 µg of 1st protein coated on a 96-well plate (1 h, 25 °C), blocked with 5% milk in PBS; 2nd protein added at increasing concentrations in blocking buffer (1 h, 25 °C); detected with anti-WASp antibody, OD450; RPA coated alone or after pre-incubation with 1 nM ssDNA; both purified"}, "[4]": {"target": "γH2A.X (endogenous, human T and B cells) (human (endogenous in T and B cells)) (UniProt P16104)", "assay": "proximity ligation; Duolink PLA on fixed, permeabilised human T cells and B cells, endogenous proteins; no damage control (no genotoxin)"}, "[5]": {"target": "TOPBP1 (endogenous, human T cells) (human (endogenous in T cells)) (UniProt Q92547)", "assay": "proximity ligation; Duolink PLA on fixed, permeabilised human T cells and B cells, endogenous proteins; cells treated with HU or CPT (2 h or 4 h); WT and WASp-deficient cells compared in some panels"}}, "note": "These are yes or no findings as the source states them, for the method shown. For part of these data: In cells and extracts the contact can be indirect. Some results given as binding are weak or reduced against the parent protein; the word gives no strength."}
{"substance": "RPA2(pSer33) (endogenous, human T and B cells) (from UniProt P15927 1-270)", "values": [{"measurement": "binding", "setting": "[1]", "value": "binds"}]}
{"substance": "Recombinant human WT*WASp (Wiskott-Aldrich syndrome protein) (from UniProt P42768 1-502)", "values": [{"measurement": "binding", "setting": "[2]", "value": "no binding (tested: highest amount of WT*WASp 1 μg)"}, {"measurement": "binding", "setting": "[3]", "value": "no binding (tested: highest amount of WT*WASp 1 μg)"}]}
{"substance": "Endogenous WASp of human T cells and B cells (from UniProt P42768 1-502)", "values": [{"measurement": "binding", "setting": "[4]", "value": "no binding (condition: without genotoxin (no damage))"}, {"measurement": "binding", "setting": "[1]", "value": "binds"}]}
{"substance": "ATR (endogenous, human T cells) (from UniProt Q13535 1-2644) (enzyme)", "values": [{"measurement": "binding", "setting": "[5]", "value": "binds"}]}
